Laboratory results: PubChem BioAssay AID1259254 (NCATS, 2017)
Screen: 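Genome-wide screen for genes that prevent DNA re-replication in cancer cells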 (primary screen). System: human HCT116 colorectal cancer cells. Reagent: single siRNA against human genes. Time to read-out: 3 days. Measurement: 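Nuclei stained with Hoechst and imaged; cell-cycle phase assigned by DNA content; G2 share scaled per plate, non-targeting siRNA 0%, GMNN siRNA 100%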. Scale: G2 robust z-score and G2 cells, % of GMNN control: higher = more G2 cells, more excess DNA replication; raw share of cells in G2: higher = larger share of cells with G2 DNA content. Rule for the call: 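Active siRNAs have a G2 robust z of 5 or more median absolute deviations over the median, which in these data means about 38% or higher of GMNN control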.
The deposit covers about 59,000 reagents; shown is a part drawn at random. About 1,550 of them (2.6%) count as active. 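G2 share is only a proxy for re-replication; each gene was hit by three separate siRNAs, and active genes were retested.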 Raw values vary from plate to plate and are shown uncorrected. Reagents against one gene are numbered here. Not given: the amount of reagent.

gene knocked down | siRNA no. | G2 robust z-score | G2 cells, % of GMNN control | raw share of cells in G2 (%) | Outcome
ORMDL1 (ORMDL sphingolipid biosynthesis regulator 1) | 1 | 0.18 | 4.24 | 5.79 | inactive
ORMDL1 (ORMDL sphingolipid biosynthesis regulator 1) | 2 | -0.594 | -1.21 | 2.97 | inactive
ORMDL1 (ORMDL sphingolipid biosynthesis regulator 1) | 3 | -0.813 | -2.75 | 1.01 | inactive
PTMAP11 (prothymosin alpha pseudogene 11) | 1 | -0.241 | 1.27 | 3.55 | inactive
PTMAP11 (prothymosin alpha pseudogene 11) | 2 | 3.6 | 28.3 | 14.6 | inactive
PTMAP11 (prothymosin alpha pseudogene 11) | 3 | -0.504 | -0.581 | 3.2 | inactive
ZSCAN5B (zinc finger and SCAN domain containing 5B) | 1 | 1.94 | 16.6 | 9.68 | inactive
ZSCAN5B (zinc finger and SCAN domain containing 5B) | 2 | 1.35 | 12.4 | 8.7 | inactive
ZSCAN5B (zinc finger and SCAN domain containing 5B) | 3 | 0.587 | 7.1 | 7.05 | inactive
IFT80 (intraflagellar transport 80) | 1 | 1.16 | 11.1 | 8.72 | inactive
IFT80 (intraflagellar transport 80) | 2 | 0.144 | 3.98 | 6.36 | inactive
IFT80 (intraflagellar transport 80) | 3 | -0.0214 | 2.82 | 3.92 | inactive
SSR2 (signal sequence receptor subunit 2) | 1 | -1.19 | -5.4 | 2.73 | inactive
SSR2 (signal sequence receptor subunit 2) | 2 | 0.247 | 4.71 | 5.76 | inactive
SSR2 (signal sequence receptor subunit 2) | 3 | 0.397 | 5.76 | 5.38 | inactive
PIM2 (Pim-2 proto-oncogene, serine/threonine kinase) | 1 | 0.98 | 9.86 | 8.78 | inactive
PIM2 (Pim-2 proto-oncogene, serine/threonine kinase) | 2 | 3.94 | 30.7 | 13.5 | inactive
PIM2 (Pim-2 proto-oncogene, serine/threonine kinase) | 3 | -0.139 | 1.99 | 6.21 | inactive

Look-ups from above:
Under “G2 cells, % of GMNN control”, ZSCAN5B (zinc finger and SCAN domain containing 5B) #1 is entered as 16.6
PIM2 (Pim-2 proto-oncogene, serine/threonine kinase) #2, Outcome: inactive
For “G2 cells, % of GMNN control”, ORMDL1 (ORMDL sphingolipid biosynthesis regulator 1) #2 is entered as -1.21
SSR2 (signal sequence receptor subunit 2) #3, G2 cells, % of GMNN control = 5.76
Under “Outcome”, ORMDL1 (ORMDL sphingolipid biosynthesis regulator 1) #1 shows inactive
Entry for PTMAP11 (prothymosin alpha pseudogene 11) #3 in “Outcome”: inactive

The listing continues.
gene knocked down | siRNA no. | G2 robust z-score | G2 cells, % of GMNN control | raw share of cells in G2 (%) | Outcome
VN1R4 (vomeronasal 1 receptor 4) | 1 | 0.764 | 8.34 | 8.82 | inactive
VN1R4 (vomeronasal 1 receptor 4) | 2 | 0.335 | 5.33 | 6.38 | inactive
VN1R4 (vomeronasal 1 receptor 4) | 3 | -0.00234 | 2.95 | 4.17 | inactive
ZNF436 (zinc finger protein 436) | 1 | -0.665 | -1.71 | 2.19 | inactive
ZNF436 (zinc finger protein 436) | 2 | -0.818 | -2.79 | 4.65 | inactive
ZNF436 (zinc finger protein 436) | 3 | 0.282 | 4.95 | 5.19 | inactive
GH2 (growth hormone 2) | 1 | 0.193 | 4.33 | 6.81 | inactive
GH2 (growth hormone 2) | 2 | -0.207 | 1.51 | 4.2 | inactive
GH2 (growth hormone 2) | 3 | -0.999 | -4.06 | 3.72 | inactive
H2AC8 (H2A clustered histone 8) | 1 | -1.38 | -6.74 | 0.884 | inactive
H2AC8 (H2A clustered histone 8) | 2 | -0.778 | -2.51 | 4.13 | inactive
H2AC8 (H2A clustered histone 8) | 3 | -0.483 | -0.43 | 3.93 | inactive
PROKR2 (prokineticin receptor 2) | 1 | -1.28 | -6.07 | 3.67 | inactive
PROKR2 (prokineticin receptor 2) | 2 | 0.676 | 7.73 | 7.22 | inactive
PROKR2 (prokineticin receptor 2) | 3 | 1.68 | 14.8 | 7.8 | inactive
SUB1P1 (SUB1 pseudogene 1) | 1 | -1.06 | -4.51 | 2.2 | inactive
SUB1P1 (SUB1 pseudogene 1) | 2 | -0.574 | -1.07 | 2.97 | inactive
SUB1P1 (SUB1 pseudogene 1) | 3 | 0.163 | 4.12 | 4.71 | inactive
ADCY5 (adenylate cyclase 5) | 1 | 0.45 | 6.14 | 6.81 | inactive
ADCY5 (adenylate cyclase 5) | 2 | 0.327 | 5.27 | 6.95 | inactive
ADCY5 (adenylate cyclase 5) | 3 | 5.01 | 38.2 | 18.2 | active
ACY3 (aminoacylase 3) | 1 | 6.94 | 51.8 | 27.5 | active
ACY3 (aminoacylase 3) | 2 | 2.27 | 19 | 10.7 | inactive
ACY3 (aminoacylase 3) | 3 | -0.986 | -3.97 | 2.78 | inactive
TRAPPC13 (trafficking protein particle complex subunit 13) | 1 | -1.05 | -4.4 | 1.17 | inactive
TRAPPC13 (trafficking protein particle complex subunit 13) | 2 | -0.0272 | 2.78 | 5.6 | inactive
TRAPPC13 (trafficking protein particle complex subunit 13) | 3 | -0.389 | 0.233 | 4.41 | inactive
PLK1 (polo like kinase 1) | 1 | 14.9 | 108 | 41.2 | active
PLK1 (polo like kinase 1) | 2 | 11.7 | 85.1 | 34.1 | active
PLK1 (polo like kinase 1) | 3 | 9.69 | 71.1 | 29.1 | active
